Values from PubChem BioAssay AID1259254 (NCATS, 2017)
Test: 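Genome-wide screen for genes that prevent DNA re-replication in cancer cells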 (primary screen). System: human HCT116 colorectal cancer cells. Knock-down reagent: single siRNA against human genes. Time to read-out: 3 days. Measured: 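Imaged Hoechst DNA stain sorts each cell into a cycle phase by DNA amount; per plate, G2 fraction set to 0% for non-targeting and 100% for GMNN siRNA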. Scale: G2 robust z-score and G2 cells, % of GMNN control: higher = more G2 cells, more excess DNA replication. Hit rule: 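Active siRNAs have a G2 robust z of 5 or more median absolute deviations over the median, which in these data means about 38% or higher of GMNN control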.
Shown is a random part of about 59,000 deposited reagents. In the full data, about 1,550 (2.6%) were called active. 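G2 share is only a proxy for re-replication; each gene was hit by three separate siRNAs, and active genes were retested.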 Unmarked entries are inactive. The numbers tell different reagents against one gene apart. Further read-outs or replicates are left out here. Not given: the amount of reagent.

| gene knocked down | reagent | G2 robust z-score | G2 cells, % of GMNN control |
| --- | --- | --- | --- |
| CDK15 (cyclin dependent kinase 15) | 1 | 3.46 | 27.3 |
| CDK15 (cyclin dependent kinase 15) | 2 | -0.879 | -3.22 |
| CDK15 (cyclin dependent kinase 15) | 3 | 9.16 (active) | 67.4 |
| PEMT (phosphatidylethanolamine N-methyltransferase) | 1 | -0.155 | 1.88 |
| PEMT (phosphatidylethanolamine N-methyltransferase) | 2 | -1.15 | -5.14 |
| PEMT (phosphatidylethanolamine N-methyltransferase) | 3 | 0.441 | 6.07 |
| HSPB3 (heat shock protein family B (small) member 3) | 1 | 3.25 | 25.8 |
| HSPB3 (heat shock protein family B (small) member 3) | 2 | 0.649 | 7.53 |
| HSPB3 (heat shock protein family B (small) member 3) | 3 | -0.305 | 0.82 |
| DCAF13 (DDB1 and CUL4 associated factor 13) | 1 | 3.42 | 27 |
| DCAF13 (DDB1 and CUL4 associated factor 13) | 2 | 1.31 | 12.2 |
| DCAF13 (DDB1 and CUL4 associated factor 13) | 3 | 0.255 | 4.76 |
| TXNDC12 (thioredoxin domain containing 12) | 1 | -0.435 | -0.0954 |
| TXNDC12 (thioredoxin domain containing 12) | 2 | 1.1 | 10.7 |
| TXNDC12 (thioredoxin domain containing 12) | 3 | -0.432 | -0.0736 |
| NXPE4 (neurexophilin and PC-esterase domain family member 4) | 1 | -0.154 | 1.89 |
| NXPE4 (neurexophilin and PC-esterase domain family member 4) | 2 | -0.659 | -1.67 |
| NXPE4 (neurexophilin and PC-esterase domain family member 4) | 3 | 2.87 | 23.1 |
| NCOR1P1 (NCOR1 pseudogene 1) | 1 | -0.431 | -0.0674 |
| NCOR1P1 (NCOR1 pseudogene 1) | 2 | -0.131 | 2.04 |
| NCOR1P1 (NCOR1 pseudogene 1) | 3 | 1.78 | 15.5 |
| SLC27A5 | 1 | -0.0131 | 2.88 |
| SLC27A5 | 2 | -0.929 | -3.57 |
| SLC27A5 | 3 | 2.01 | 17.1 |
| ATG3 (autophagy related 3) | 1 | -0.103 | 2.25 |
| ATG3 (autophagy related 3) | 2 | 1.2 | 11.4 |
| ATG3 (autophagy related 3) | 3 | -0.908 | -3.42 |
| MRPS18C (mitochondrial ribosomal protein S18C) | 1 | 0.884 | 9.19 |
| MRPS18C (mitochondrial ribosomal protein S18C) | 2 | 1 | 10 |
| MRPS18C (mitochondrial ribosomal protein S18C) | 3 | -1.16 | -5.22 |

4 entries from above, arranged by “G2 robust z-score”, low to high.
| gene knocked down | reagent | G2 robust z-score | G2 cells, % of GMNN control |
| --- | --- | --- | --- |
| HSPB3 (heat shock protein family B (small) member 3) | 3 | -0.305 | 0.82 |
| HSPB3 (heat shock protein family B (small) member 3) | 2 | 0.649 | 7.53 |
| DCAF13 (DDB1 and CUL4 associated factor 13) | 2 | 1.31 | 12.2 |
| DCAF13 (DDB1 and CUL4 associated factor 13) | 1 | 3.42 | 27 |
